# According to paper PMC9815809:
# By UniProt entry, the sequences of proteins in these tests, tags left out.
# UniProt P97454: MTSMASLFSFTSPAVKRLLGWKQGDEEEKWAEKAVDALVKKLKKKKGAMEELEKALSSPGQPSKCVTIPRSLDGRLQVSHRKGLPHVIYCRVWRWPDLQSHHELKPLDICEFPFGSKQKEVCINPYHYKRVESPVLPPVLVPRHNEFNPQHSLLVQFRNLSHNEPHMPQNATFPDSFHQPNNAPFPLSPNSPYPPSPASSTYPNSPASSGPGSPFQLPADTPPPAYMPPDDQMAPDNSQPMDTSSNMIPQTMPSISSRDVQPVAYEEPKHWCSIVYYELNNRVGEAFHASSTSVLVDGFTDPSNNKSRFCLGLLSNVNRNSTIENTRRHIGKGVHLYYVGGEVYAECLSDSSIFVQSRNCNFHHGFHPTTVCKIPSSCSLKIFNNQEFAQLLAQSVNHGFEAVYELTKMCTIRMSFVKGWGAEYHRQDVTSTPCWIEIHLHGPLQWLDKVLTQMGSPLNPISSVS
# UniProt O35625: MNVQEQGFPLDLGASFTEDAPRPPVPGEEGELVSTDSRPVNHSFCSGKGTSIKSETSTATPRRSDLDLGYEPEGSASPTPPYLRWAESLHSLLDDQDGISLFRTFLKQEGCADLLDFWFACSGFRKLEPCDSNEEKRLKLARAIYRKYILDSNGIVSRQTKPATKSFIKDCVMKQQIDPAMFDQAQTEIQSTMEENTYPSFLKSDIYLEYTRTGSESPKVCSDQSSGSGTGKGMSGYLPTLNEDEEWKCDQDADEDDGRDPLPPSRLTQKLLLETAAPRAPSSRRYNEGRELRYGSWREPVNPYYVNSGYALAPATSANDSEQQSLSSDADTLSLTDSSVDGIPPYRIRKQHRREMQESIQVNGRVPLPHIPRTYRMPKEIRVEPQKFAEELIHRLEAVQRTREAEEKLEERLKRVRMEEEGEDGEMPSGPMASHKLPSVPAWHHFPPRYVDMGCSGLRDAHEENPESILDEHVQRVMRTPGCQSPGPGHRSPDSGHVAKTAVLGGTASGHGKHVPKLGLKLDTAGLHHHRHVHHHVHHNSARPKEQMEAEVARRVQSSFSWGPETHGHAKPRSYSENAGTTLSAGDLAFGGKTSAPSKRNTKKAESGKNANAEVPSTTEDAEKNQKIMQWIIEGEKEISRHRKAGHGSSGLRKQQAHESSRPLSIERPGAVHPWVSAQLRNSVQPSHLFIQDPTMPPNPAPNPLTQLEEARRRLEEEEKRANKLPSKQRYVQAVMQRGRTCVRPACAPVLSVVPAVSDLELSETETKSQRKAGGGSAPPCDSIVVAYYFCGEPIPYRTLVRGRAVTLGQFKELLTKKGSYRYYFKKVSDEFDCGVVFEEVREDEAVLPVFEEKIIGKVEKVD
# Results are given in words; binding and its absence hold for the method and conditions named. Binding seen in cells or lysates may run through a third protein. Some entries that bind do so weakly or less than the wild type.
# Biological target: Smad5 (mouse (endogenous in C3H10T1/2)) (UniProt P97454)
# Test: co-IP; C3H10T1/2 cell lysate (50 mM Tris pH 7.4, 150 mM NaCl, 1 mM EDTA, 1% Nonidet P-40, 10% glycerol, 0.5 mM DTT), precleared with IgG-agarose; IP with anti-Smad5 antibody on Protein G Plus-Agarose at 4°C overnight, six washes; Western blot with anti-Axin1 antibody; both proteins endogenous
substance,measurement,value
Axin1 (from UniProt O35625 1-863),binding,binds
